# PubChem BioAssay AID1224826, NIAID – 2016
# Test: 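Genes that change LPS-induced Tnf promoter activity in mouse macrophages when knocked down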 (primary screen)
# Cells: RAW264.7 G9 macrophages from mouse bearing reporters for p65 (GFP) and the Tnf promoter (mCherry)
# Reagent: siRNA pool against mouse genes, 100 nM
# Time to read-out: 16 h of LPS stimulation, after 2 days of siRNA transfection
# Treatment: bacterial lipopolysaccharide (Salmonella minnesota R595), 10 ng/ml
# Read-out: 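Nuclear mCherry signal of the Tnf promoter reporter measured by imaging after background removal, scaled to each plate median and turned into robust z-scores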
# Direction: Tnf reporter robust z-score: higher = stronger Tnf promoter reporter signal after LPS; Tnf reporter intensity: higher = stronger Tnf promoter reporter signal
# Call rule: 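Called active when robust z-score is at most -1.3, matching the median of the Tlr4 knock-down control, or over 3; control wells and wells with under 50 cells never active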
# Meaning of the calls: active = Tnf reporter clearly lowered or raised; inactive = no clear change in Tnf reporter
# Shown is one part, drawn at random, of about 17,000 reagents tested. About 1,110 of all reagents (6.6%) count as active. 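Active means lowered or raised reporter signal; replicate intensities are raw and not normalised per plate.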 Reagents against one gene are numbered here. Reagent sequences are not shown.
The first 3 records, to show the layout:
Target gene,reagent,Tnf reporter robust z-score,fewer than 50 cells in well,"Tnf reporter intensity, replicate 1","Tnf reporter intensity, replicate 2",outcome
Mfap1a (microfibrillar-associated protein 1A),1,-1.76,enough cells in well,81.5,78.6,active
Fkbp4 (FK506 binding protein 4),1,0.04,enough cells in well,287,214,inactive
D630029K05Rik (RIKEN cDNA D630029K05 gene),1,-0.36,enough cells in well,169,139,inactive

The list itself, repeating the preview:
Target gene,reagent,Tnf reporter robust z-score,fewer than 50 cells in well,"Tnf reporter intensity, replicate 1","Tnf reporter intensity, replicate 2",outcome
Mfap1a (microfibrillar-associated protein 1A),1,-1.76,enough cells in well,81.5,78.6,active
Fkbp4 (FK506 binding protein 4),1,0.04,enough cells in well,287,214,inactive
D630029K05Rik (RIKEN cDNA D630029K05 gene),1,-0.36,enough cells in well,169,139,inactive
"Fabp4 (fatty acid binding protein 4, adipocyte)",1,1.14,enough cells in well,296,343,inactive
Taar8b (trace amine-associated receptor 8B),1,0.61,enough cells in well,270,336,inactive
Ikzf4 (IKAROS family zinc finger 4),1,-0.37,enough cells in well,108,110,inactive
Ikzf4 (IKAROS family zinc finger 4),2,1.03,enough cells in well,209,230,inactive
Il1rl1 (interleukin 1 receptor-like 1),1,-0.16,enough cells in well,220,147,inactive
Elapor2,1,1.6,enough cells in well,342,222,inactive
"Dagla (diacylglycerol lipase, alpha)",1,-0.68,enough cells in well,168,96.5,inactive
Acbd5 (acyl-Coenzyme A binding domain containing 5),1,-0.18,enough cells in well,177,192,inactive
Kctd2 (potassium channel tetramerisation domain containing 2),1,-0.05,enough cells in well,197,123,inactive
Hook3 (hook microtubule tethering protein 3),1,-0.92,enough cells in well,186,101,inactive
6030452D12Rik (RIKEN cDNA 6030452D12 gene),1,3.35,enough cells in well,378,311,active
"Eif3l (eukaryotic translation initiation factor 3, subunit L)",1,-0.26,enough cells in well,219,73,inactive
"Scn7a (sodium channel, voltage-gated, type VII, alpha)",1,0.1,enough cells in well,286,224,inactive
Pcdhb2 (protocadherin beta 2),1,-0.1,enough cells in well,200,202,inactive
Cenpc1 (centromere protein C1),1,-0.62,enough cells in well,184,174,inactive
Adam11 (a disintegrin and metallopeptidase domain 11),1,-0.62,enough cells in well,131,135,inactive
Pls3 (plastin 3 (T-isoform)),1,-2.12,enough cells in well,42.6,31.5,active
Tspan5 (tetraspanin 5),1,1.55,enough cells in well,177,87.2,inactive
Itgb3 (integrin beta 3),1,-0.35,enough cells in well,249,105,inactive
Maco1 (macoilin 1),1,-0.54,enough cells in well,108,152,inactive
Tspan11 (tetraspanin 11),1,-0.62,enough cells in well,219,58,inactive
